Assay results as given in US9309314B2 (AGENCY FOR SCIENCE, TECHNOLOGY AND RESEARCH (A*STAR), priority 2013, dated 2016).

Test: peptide synthesis
Conditions: whole synthesis, one disulfide bridge, sequence written open

QRPVNLTMRRKLRKHNCLQRRCMPLHSRVPFP
purity (crude or final not stated): 98%

Where a sequence shows no end group, the ends are not given.
